Results as given in paper PMC5864832.

Amino acid sequences for entries named in this document (tags omitted). Residues count along the entry.
UniProt P02545, residues 1-646: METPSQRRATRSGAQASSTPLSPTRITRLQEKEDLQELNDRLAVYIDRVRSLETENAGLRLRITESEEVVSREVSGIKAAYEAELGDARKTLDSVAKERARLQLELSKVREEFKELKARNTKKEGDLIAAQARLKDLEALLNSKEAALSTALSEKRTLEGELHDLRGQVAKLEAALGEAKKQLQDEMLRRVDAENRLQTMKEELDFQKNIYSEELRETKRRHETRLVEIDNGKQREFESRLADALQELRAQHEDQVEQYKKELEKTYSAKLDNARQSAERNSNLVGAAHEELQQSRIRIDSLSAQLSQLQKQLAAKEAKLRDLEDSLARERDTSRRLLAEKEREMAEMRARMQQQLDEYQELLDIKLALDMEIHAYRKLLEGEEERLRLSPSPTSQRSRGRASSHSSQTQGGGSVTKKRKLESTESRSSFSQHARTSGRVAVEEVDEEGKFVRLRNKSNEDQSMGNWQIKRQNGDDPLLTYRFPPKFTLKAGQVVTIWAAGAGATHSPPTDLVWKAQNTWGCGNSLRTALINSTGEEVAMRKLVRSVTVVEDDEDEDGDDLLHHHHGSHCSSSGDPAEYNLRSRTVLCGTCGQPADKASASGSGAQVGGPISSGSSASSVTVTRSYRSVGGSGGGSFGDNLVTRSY
UniProt O15131: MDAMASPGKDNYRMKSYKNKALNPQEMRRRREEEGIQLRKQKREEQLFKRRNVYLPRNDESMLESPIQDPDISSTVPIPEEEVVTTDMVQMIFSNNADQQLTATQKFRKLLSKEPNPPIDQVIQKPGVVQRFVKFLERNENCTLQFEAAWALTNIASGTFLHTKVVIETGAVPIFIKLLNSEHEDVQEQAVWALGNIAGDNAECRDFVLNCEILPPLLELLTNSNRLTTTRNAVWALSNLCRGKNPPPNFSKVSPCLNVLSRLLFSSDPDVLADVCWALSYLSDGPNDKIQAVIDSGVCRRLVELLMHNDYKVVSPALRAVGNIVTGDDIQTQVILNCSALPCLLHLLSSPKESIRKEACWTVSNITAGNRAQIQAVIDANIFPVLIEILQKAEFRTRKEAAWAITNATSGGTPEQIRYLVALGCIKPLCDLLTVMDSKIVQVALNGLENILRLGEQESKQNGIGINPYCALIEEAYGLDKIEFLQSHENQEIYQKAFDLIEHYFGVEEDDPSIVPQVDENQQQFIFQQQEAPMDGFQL
UniProt Q14974: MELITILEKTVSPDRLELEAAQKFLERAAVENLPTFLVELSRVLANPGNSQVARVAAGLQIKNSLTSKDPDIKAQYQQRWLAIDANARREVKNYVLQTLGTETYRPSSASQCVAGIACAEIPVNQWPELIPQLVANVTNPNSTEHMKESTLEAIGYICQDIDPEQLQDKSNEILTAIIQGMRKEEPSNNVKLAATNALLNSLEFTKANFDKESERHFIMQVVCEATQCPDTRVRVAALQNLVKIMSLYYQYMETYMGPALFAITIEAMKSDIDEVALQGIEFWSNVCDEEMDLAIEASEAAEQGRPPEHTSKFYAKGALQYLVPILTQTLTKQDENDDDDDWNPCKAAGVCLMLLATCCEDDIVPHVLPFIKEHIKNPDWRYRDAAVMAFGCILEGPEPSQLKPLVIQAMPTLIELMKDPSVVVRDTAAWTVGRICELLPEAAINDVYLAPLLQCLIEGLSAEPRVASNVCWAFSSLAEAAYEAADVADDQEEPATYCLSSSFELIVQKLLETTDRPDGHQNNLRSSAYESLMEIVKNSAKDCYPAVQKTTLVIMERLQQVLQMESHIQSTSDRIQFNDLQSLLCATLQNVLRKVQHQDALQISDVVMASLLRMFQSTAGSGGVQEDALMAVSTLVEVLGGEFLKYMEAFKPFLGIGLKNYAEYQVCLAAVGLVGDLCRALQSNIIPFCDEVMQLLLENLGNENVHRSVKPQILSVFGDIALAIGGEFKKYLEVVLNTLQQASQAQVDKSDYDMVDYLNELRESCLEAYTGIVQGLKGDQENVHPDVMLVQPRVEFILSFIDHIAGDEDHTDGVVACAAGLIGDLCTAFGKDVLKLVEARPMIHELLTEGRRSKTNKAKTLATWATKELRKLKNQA
UniProt Q8WYP5: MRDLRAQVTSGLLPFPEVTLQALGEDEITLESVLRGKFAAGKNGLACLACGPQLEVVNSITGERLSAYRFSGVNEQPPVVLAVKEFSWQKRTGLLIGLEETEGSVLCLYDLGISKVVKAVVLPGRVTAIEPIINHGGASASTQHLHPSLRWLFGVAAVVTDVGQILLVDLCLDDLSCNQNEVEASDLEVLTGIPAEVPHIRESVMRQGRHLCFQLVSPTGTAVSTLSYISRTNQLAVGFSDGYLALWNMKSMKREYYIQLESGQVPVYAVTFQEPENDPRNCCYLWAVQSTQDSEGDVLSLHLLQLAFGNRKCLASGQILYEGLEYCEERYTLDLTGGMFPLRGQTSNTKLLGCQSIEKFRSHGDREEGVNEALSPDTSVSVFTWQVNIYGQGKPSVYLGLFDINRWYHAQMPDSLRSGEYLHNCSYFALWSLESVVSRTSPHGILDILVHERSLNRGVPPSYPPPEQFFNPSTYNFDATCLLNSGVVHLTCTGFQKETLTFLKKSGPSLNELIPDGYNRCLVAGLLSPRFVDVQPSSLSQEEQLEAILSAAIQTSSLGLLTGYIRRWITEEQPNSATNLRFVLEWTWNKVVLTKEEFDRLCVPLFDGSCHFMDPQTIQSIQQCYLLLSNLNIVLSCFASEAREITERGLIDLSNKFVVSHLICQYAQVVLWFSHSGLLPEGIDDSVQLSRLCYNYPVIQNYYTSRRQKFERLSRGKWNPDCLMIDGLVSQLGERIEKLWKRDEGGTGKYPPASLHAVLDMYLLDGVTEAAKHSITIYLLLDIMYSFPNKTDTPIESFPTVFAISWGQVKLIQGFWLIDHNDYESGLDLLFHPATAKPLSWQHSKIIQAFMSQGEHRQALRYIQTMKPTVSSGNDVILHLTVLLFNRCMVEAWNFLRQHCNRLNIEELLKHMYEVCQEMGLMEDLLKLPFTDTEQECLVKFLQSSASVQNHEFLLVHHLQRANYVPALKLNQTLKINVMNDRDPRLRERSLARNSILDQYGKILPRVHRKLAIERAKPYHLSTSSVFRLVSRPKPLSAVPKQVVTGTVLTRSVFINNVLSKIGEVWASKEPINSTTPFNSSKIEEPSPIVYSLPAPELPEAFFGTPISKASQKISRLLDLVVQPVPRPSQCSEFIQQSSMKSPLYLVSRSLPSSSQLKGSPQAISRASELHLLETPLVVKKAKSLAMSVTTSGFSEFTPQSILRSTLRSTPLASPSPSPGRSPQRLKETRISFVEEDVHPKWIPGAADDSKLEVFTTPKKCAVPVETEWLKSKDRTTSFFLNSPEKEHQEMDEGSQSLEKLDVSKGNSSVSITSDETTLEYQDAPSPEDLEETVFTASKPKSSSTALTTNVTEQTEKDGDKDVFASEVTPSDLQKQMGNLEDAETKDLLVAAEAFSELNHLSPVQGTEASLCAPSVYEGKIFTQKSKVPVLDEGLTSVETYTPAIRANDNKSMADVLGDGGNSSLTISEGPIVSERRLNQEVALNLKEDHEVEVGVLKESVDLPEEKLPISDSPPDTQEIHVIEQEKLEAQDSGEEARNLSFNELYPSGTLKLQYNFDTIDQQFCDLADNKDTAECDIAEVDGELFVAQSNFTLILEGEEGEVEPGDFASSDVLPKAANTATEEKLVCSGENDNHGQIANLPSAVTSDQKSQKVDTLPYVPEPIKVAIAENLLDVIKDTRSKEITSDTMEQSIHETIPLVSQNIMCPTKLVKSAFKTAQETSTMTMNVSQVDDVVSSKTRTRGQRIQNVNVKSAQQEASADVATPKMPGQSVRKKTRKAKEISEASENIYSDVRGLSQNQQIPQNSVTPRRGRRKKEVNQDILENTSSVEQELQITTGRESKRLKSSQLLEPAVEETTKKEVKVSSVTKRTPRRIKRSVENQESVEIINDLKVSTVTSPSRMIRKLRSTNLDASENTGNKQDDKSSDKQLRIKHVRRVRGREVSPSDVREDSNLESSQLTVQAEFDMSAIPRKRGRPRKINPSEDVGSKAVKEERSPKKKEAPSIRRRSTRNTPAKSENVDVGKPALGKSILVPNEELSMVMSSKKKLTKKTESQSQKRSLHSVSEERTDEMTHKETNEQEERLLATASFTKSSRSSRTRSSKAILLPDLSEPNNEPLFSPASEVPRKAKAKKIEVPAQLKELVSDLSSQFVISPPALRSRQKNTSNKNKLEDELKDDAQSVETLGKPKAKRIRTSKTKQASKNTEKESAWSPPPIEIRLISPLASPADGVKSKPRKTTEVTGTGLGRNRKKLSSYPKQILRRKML
UniProt A8CG34: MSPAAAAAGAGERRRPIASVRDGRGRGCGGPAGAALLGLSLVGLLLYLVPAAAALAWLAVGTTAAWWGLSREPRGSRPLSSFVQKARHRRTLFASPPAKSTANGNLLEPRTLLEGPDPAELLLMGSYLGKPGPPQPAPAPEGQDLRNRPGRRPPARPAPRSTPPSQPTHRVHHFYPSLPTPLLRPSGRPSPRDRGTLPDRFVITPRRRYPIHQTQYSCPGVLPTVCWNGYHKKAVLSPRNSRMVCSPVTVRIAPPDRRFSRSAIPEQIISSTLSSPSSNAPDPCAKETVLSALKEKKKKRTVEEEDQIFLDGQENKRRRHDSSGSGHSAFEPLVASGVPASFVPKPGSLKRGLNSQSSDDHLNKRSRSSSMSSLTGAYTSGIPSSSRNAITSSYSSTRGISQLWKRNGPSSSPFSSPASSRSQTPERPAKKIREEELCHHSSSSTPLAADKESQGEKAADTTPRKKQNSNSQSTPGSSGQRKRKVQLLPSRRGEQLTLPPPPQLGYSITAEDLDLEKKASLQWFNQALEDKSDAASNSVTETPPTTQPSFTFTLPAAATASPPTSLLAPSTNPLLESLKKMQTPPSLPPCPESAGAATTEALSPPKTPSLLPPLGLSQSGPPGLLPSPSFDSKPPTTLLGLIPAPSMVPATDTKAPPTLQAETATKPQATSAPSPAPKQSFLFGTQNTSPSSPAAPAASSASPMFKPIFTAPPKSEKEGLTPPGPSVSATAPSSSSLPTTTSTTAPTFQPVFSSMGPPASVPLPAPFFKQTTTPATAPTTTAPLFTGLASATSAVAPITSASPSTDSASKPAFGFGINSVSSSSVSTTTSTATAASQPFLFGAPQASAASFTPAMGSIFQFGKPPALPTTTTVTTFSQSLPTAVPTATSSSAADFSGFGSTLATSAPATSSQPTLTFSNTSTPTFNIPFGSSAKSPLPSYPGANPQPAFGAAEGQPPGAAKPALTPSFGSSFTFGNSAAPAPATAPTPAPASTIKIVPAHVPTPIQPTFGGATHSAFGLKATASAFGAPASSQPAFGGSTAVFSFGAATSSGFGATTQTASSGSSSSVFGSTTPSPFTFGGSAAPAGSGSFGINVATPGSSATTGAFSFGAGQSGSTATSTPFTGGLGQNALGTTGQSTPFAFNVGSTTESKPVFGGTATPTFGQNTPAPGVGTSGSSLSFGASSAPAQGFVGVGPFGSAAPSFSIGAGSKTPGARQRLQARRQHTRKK
UniProt O00629: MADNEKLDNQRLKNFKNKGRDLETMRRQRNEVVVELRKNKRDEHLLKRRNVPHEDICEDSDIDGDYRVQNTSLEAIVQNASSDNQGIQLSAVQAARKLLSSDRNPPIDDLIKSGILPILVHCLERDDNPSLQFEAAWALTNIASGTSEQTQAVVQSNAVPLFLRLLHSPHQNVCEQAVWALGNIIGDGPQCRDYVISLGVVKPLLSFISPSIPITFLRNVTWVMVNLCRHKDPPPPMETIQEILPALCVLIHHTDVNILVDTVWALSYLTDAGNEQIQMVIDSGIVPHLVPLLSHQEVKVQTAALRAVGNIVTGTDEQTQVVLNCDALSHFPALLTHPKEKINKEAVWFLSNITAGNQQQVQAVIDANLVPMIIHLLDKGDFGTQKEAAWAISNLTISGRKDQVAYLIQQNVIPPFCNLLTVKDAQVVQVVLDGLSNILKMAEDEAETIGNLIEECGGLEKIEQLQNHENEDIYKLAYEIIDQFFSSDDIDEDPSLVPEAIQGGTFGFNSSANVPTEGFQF
UniProt O00505: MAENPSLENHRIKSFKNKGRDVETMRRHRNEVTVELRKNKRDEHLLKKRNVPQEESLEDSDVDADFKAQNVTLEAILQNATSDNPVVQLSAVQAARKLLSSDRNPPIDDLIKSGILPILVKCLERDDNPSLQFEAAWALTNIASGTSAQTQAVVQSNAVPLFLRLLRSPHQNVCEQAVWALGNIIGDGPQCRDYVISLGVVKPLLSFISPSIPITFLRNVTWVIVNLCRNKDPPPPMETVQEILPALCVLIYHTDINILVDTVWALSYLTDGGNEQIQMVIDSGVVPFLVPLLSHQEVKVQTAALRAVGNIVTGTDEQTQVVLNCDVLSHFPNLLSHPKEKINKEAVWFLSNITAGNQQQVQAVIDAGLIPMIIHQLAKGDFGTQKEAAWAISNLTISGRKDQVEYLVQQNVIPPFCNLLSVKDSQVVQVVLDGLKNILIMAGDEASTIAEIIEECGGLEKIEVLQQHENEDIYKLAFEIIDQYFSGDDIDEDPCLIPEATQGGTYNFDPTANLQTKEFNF

B1: Nuclear pore complex protein Nup (NU) 107 (protein, UniProt P57740 1-925)
chain: MDRSGFGEISSPVIREAEVTRTARKQSAQKRVLLQASQDENFGNTTPRNQVIPRTPSSFRQPFTPTSRSLLRQPDISCILGTGGKSPRLTQSSGFFGNLSMVTNLDDSNWAAAFSSQRSGLFTNTEPHSITEDVTISAVMLREDDPGEAASMSMFSDFLQSFLKHSSSTVFDLVEEYENICGSQVNILSKIVSRATPGLQKFSKTASMLWLLQQEMVTWRLLASLYRDRIQSALEEESVFAVTAVNASEKTVVEALFQRDSLVRQSQLVVDWLESIAKDEIGEFSDNIEFYAKSVYWENTLHTLKQRQLTSYVGSVRPLVTELDPDAPIRQKMPLDDLDREDEVRLLKYLFTLIRAGMTEEAQRLCKRCGQAWRAATLEGWKLYHDPNVNGGTELEPVEGNPYRRIWKISCWRMAEDELFNRYERAIYAALSGNLKQLLPVCDTWEDTVWAYFRVMVDSLVEQEIQTSVATLDETEELPREYLGANWTLEKVFEELQATDKKRVLEENQEHYHIVQKFLILGDIDGLMDEFSKWLSKSRNNLPGHLLRFMTHLILFFRTLGLQTKEEVSIEVLKTYIQLLIREKHTNLIAFYTCHLPQDLAVAQYALFLESVTEFEQRHHCLELAKEADLDVATITKTVVENIRKKDNGEFSHHDLAPALDTGTTEEDRLKIDVIDWLVFDPAQRAEALKQGNAIMRKFLASKKHEAAKEVFVKIPQDSIAEIYNQCEEQGMESPLPAEDDNAIREHLCIRAYLEAHETFNEWFKHMNSVPQKPALIPQPTFTEKVAHEHKEKKYEMDFGIWKGHLDALTADVKEKMYNVLLFVDGGWMVDVREDAKEDHERTHQMVLLRKLCLPMLCFLLHTILHSTGQYQECLQLADMVSSERHKLYLVFSKEELRKLLQKLRESSLMLLDQGLDPLGYEIQL
B2: NU155 (protein, UniProt O75694 1-1391)
chain: MPSSLLGAAMPASTSAAALQEALENAGRLIDRQLQEDRMYPDLSELLMVSAPNNPTVSGMSDMDYPLQGPGLLSVPNLPEISSIRRVPLPPELVEQFGHMQCNCMMGVFPPISRAWLTIDSDIFMWNYEDGGDLAYFDGLSETILAVGLVKPKAGIFQPHVRHLLVLATPVDIVILGLSYANLQTGSGVLNDSLSGGMQLLPDPLYSLPTDNTYLLTITSTDNGRIFLAGKDGCLYEVAYQAEAGWFSQRCRKINHSKSSLSFLVPSLLQFTFSEDDPILQIAIDNSRNILYTRSEKGVIQVYDLGQDGQGMSRVASVSQNAIVSAAGNIARTIDRSVFKPIVQIAVIENSESLDCQLLAVTHAGVRLYFSTCPFRQPLARPNTLTLVHVRLPPGFSASSTVEKPSKVHRALYSKGILLMAASENEDNDILWCVNHDTFPFQKPMMETQMTAGVDGHSWALSAIDELKVDKIITPLNKDHIPITDSPVVVQQHMLPPKKFVLLSAQGSLMFHKLRPVDQLRHLLVSNVGGDGEEIERFFKLHQEDQACATCLILACSTAACDREVSAWATRAFFRYGGEAQMRFPTTLPPPSNVGPILGSPVYSSSPVPSGSPYPNPSFLGTPSHGIQPPAMSTPVCALGNPATQATNMSCVTGPEIVYSGKHNGICIYFSRIMGNIWDASLVVERIFKSGNREITAIESSVPCQLLESVLQELKGLQEFLDRNSQFAGGPLGNPNTTAKVQQRLIGFMRPENGNPQQMQQELQRKFHEAQLSEKISLQAIQQLVRKSYQALALWKLLCEHQFTIIVAELQKELQEQLKITTFKDLVIRDKELTGALIASLINCYIRDNAAVDGISLHLQDICPLLYSTDDAICSKANELLQRSRQVQNKTEKERMLRESLKEYQKISNQVDLSNVCAQYRQVRFYEGVVELSLTAAEKKDPQGLGLHFYKHGEPEEDIVGLQAFQERLNSYKCITDTLQELVNQSKAAPQSPSVPKKPGPPVLSSDPNMLSNEEAGHHFEQMLKLSQRSKDELFSIALYNWLIQVDLADKLLQVASPFLEPHLVRMAKVDQNRVRYMDLLWRYYEKNRSFSNAARVLSRLADMHSTEISLQQRLEYIARAILSAKSSTAISSIAADGEFLHELEEKMEVARIQLQIQETLQRQYSHHSSVQDAVSQLDSELMDITKLYGEFADPFKLAECKLAIIHCAGYSDPILVQTLWQDIIEKELSDSVTLSSSDRMHALSLKIVLLGKIYAGTPRFFPLDFIVQFLEQQVCTLNWDVGFVIQTMNEIGVPLPRLLEVYDQLFKSRDPFWNRMKKPLHLLDCIHVLLIRYVENPSQVLNCERRRFTNLCLDAVCGYLVELQSMSSSVAVQAITGNFKSLQAKLERLH
B3: NU160 (protein, UniProt Q12769 1-1436)
chain: MLHLSAAPPAPPPEVTATARPCLCSVGRRGDGGKMAAAGALERSFVELSGAERERPRHFREFTVCSIGTANAVAGAVKYSESAGGFYYVESGKLFSVTRNRFIHWKTSGDTLELMEESLDINLLNNAIRLKFQNCSVLPGGVYVSETQNRVIILMLTNQTVHRLLLPHPSRMYRSELVVDSQMQSIFTDIGKVDFTDPCNYQLIPAVPGISPNSTASTAWLSSDGEALFALPCASGGIFVLKLPPYDIPGMVSVVELKQSSVMQRLLTGWMPTAIRGDQSPSDRPLSLAVHCVEHDAFIFALCQDHKLRMWSYKEQMCLMVADMLEYVPVKKDLRLTAGTGHKLRLAYSPTMGLYLGIYMHAPKRGQFCIFQLVSTESNRYSLDHISSLFTSQETLIDFALTSTDIWALWHDAENQTVVKYINFEHNVAGQWNPVFMQPLPEEEIVIRDDQDPREMYLQSLFTPGQFTNEALCKALQIFCRGTERNLDLSWSELKKEVTLAVENELQGSVTEYEFSQEEFRNLQQEFWCKFYACCLQYQEALSHPLALHLNPHTNMVCLLKKGYLSFLIPSSLVDHLYLLPYENLLTEDETTISDDVDIARDVICLIKCLRLIEESVTVDMSVIMEMSCYNLQSPEKAAEQILEDMITIDVENVMEDICSKLQEIRNPIHAIGLLIREMDYETEVEMEKGFNPAQPLNIRMNLTQLYGSNTAGYIVCRGVHKIASTRFLICRDLLILQQLLMRLGDAVIWGTGQLFQAQQDLLHRTAPLLLSYYLIKWGSECLATDVPLDTLESNLQHLSVLELTDSGALMANRFVSSPQTIVELFFQEVARKHIISHLFSQPKAPLSQTGLNWPEMITAITSYLLQLLWPSNPGCLFLECLMGNCQYVQLQDYIQLLHPWCQVNVGSCRFMLGRCYLVTGEGQKALECFCQAASEVGKEEFLDRLIRSEDGEIVSTPRLQYYDKVLRLLDVIGLPELVIQLATSAITEAGDDWKSQATLRTCIFKHHLDLGHNSQAYEALTQIPDSSRQLDCLRQLVVVLCERSQLQDLVEFPYVNLHNEVVGIIESRARAVDLMTHNYYELLYAFHIYRHNYRKAGTVMFEYGMRLGREVRTLRGLEKQGNCYLAALNCLRLIRPEYAWIVQPVSGAVYDRPGASPKRNHDGECTAAPTNRQIEILELEDLEKECSLARIRLTLAQHDPSAVAVAGSSSAEEMVTLLVQAGLFDTAISLCQTFKLPLTPVFEGLAFKCIKLQFGGEAAQAEAWAWLAANQLSSVITTKESSATDEAWRLLSTYLERYKVQNNLYHHCVINKLLSHGVPLPNWLINSYKKVDAAELLRLYLNYDLLEEAVDLVSEYVDAVLGKGHQYFGIEFPLSATAPMVWLPYSSIDQLLQALGENSANSHNIALSQKILDKLEDYQQKVDKATRDLLYRRTL
B4: NU133 (protein, UniProt Q8WUM0 1-1156)
chain: MFPAAPSPRTPGTGSRRGPLAGLGPGSTPRTASRKGLPLGSAVSSPVLFSPVGRRSSLSSRGTPTRMFPHHSITESVNYDVKTFGSSLPVKVMEALTLAEVDDQLTINIDEGGWACLVCKEKLIIWKIALSPITKLSVCKELQLPPSDFHWSADLVALSYSSPSGEAHSTQAVAVMVATREGSIRYWPSLAGEDTYTEAFVDSGGDKTYSFLTAVQGGSFILSSSGSQLIRLIPESSGKIHQHILPQGQGMLSGIGRKVSSLFGILSPSSDLTLSSVLWDRERSSFYSLTSSNISKWELDDSSEKHAYSWDINRALKENITDAIWGSESNYEAIKEGVNIRYLDLKQNCDGLVILAAAWHSADNPCLIYYSLITIEDNGCQMSDAVTVEVTQYNPPFQSEDLILCQLTVPNFSNQTAYLYNESAVYVCSTGTGKFSLPQEKIVFNAQGDSVLGAGACGGVPIIFSRNSGLVSITSRENVSILAEDLEGSLASSVAGPNSESMIFETTTKNETIAQEDKIKLLKAAFLQYCRKDLGHAQMVVDELFSSHSDLDSDSELDRAVTQISVDLMDDYPASDPRWAESVPEEAPGFSNTSLIILHQLEDKMKAHSFLMDFIHQVGLFGRLGSFPVRGTPMATRLLLCEHAEKLSAAIVLKNHHSRLSDLVNTAILIALNKREYEIPSNLTPADVFFREVSQVDTICECLLEHEEQVLRDAPMDSIEWAEVVINVNNILKDMLQAASHYRQNRNSLYRREESLEKEPEYVPWTATSGPGGIRTVIIRQHEIVLKVAYPQADSNLRNIVTEQLVALIDCFLDGYVSQLKSVDKSSNRERYDNLEMEYLQKRSDLLSPLLSLGQYLWAASLAEKYCDFDILVQMCEQTDNQSRLQRYMTQFADQNFSDFLFRWYLEKGKRGKLLSQPISQHGQLANFLQAHEHLSWLHEINSQELEKAHATLLGLANMETRYFAKKKTLLGLSKLAALASDFSEDMLQEKIEEMAEQERFLLHQETLPEQLLAEKQLNLSAMPVLTAPQLIGLYICEENRRANEYDFKKALDLLEYIDEEEDININDLKLEILCKALQRDNWSSSDGKDDPIEVSKDSIFVKILQKLLKDGIQLSEYLPEVKDLLQADQLGSLKSNPYFEFVLKANYEYYVQGQI

Biological target: Prelamin-A/C (human) (UniProt P02545)
Assay: proximity labelling; BioID: MAC-tagged bait in stable Flp-In T-REx 293 cells, tetracycline and 50 uM biotin 24 h; lysis buffer 2 (as buffer 1 with 0.1% SDS), sonication, benzonase; biotinylated proteins on Strep-Tactin beads; LC-MS; SAINT and CRAPome filter

binding, binds:
importin subunit alpha IMA6 (from UniProt O15131 1-539)
NU153 (from UniProt P49790 1-1475)
nuclear envelope pore membrane protein POM 121A (from UniProt Q96HA1 1-1249)
NUP98 (from UniProt P52948 1-880)
importin subunit beta-1 (from UniProt Q14974 1-876) (other; other documents disagree on this pair)
ELYS (from UniProt Q8WYP5 1-2266)
nuclear envelope pore membrane protein POM 121C (from UniProt A8CG34 1-1229)
importin subunit alpha IMA3 (from UniProt O00629 1-521)
importin subunit alpha IMA4 (from UniProt O00505 1-521)
B1
B2
B3
B4

Results are given in words; binding and its absence hold for the method and conditions named. Binding seen in cells or lysates may run through a third protein. A yes stands for co-enrichment or nearness to the bait. Other partners may have been found.
